PubChem BioAssay AID504764, Drosophila RNAi Screening Center, 2011

- Test: 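Knock-downs that raise or lower a Notch target reporter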 (primary screen)
- Cell system: Drosophila Kc167 cells
- Knock-down reagent: long dsRNA against Drosophila genes
- Timing: about 5 days (4 days dsRNA, then 24 h after transfection)
- Treatment: transfection of constitutively active membrane-tethered Notch lacking the extracellular domain, read 24 h later
- Read-out: 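Firefly luciferase from an E(spl)m3 reporter with active Notch, plus control-promoter and uninduced reporter wells for normalisation; unnormalised counts, duplicate wells a and b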
- Reading the numbers: induced reporter light, run 1, well a and induced reporter light, run 1, well b: higher = more light from the Notch target reporter with active Notch; control promoter light, run 1, well a and control promoter light, run 1, well b: higher = more light from the viral control promoter (cell number, transfection, viability); uninduced reporter light, run 1, well a: higher = more light from the Notch target reporter without active Notch
- Hit rule: 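Wells with low control signal or poorly matching duplicates excluded; duplicates averaged; per source plate, z beyond ±2 for induced/control log2 ratio or beyond ±1.8 for induced/uninduced marks a hit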
- Meaning of the calls: active = modifier hit (raised or lowered Notch signal); inactive = not a hit
The screen tested about 22,000 reagents; shown is an unselected part of those with a known target gene and a result. In the full data, 403 (1.9%) were called active. 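Unnormalised raw counts per well; ratio z-scores behind the hit calls and whether each hit raises or lowers signal are not deposited.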 Unmarked entries are inactive. A plus sign joins genes that one reagent is predicted to hit. No sequences are given here. Not stated in the record: the amount of reagent.

Depletion of His2B:CG33894 + His2B:CG33872 + His2B:CG33902 + 20 more [DRSC21265] gave: induced reporter light, run 1, well a = 29235; induced reporter light, run 1, well b = 36495; control promoter light, run 1, well a = 26785; control promoter light, run 1, well b = 36545; uninduced reporter light, run 1, well a = 4860. CG13318 [DRSC14581] scored induced reporter light, run 1, well a = 61180; induced reporter light, run 1, well b = 64735; control promoter light, run 1, well a = 69360; control promoter light, run 1, well b = 53980; uninduced reporter light, run 1, well a = 4190. Set2 [DRSC19765] scored induced reporter light, run 1, well a = 55160; induced reporter light, run 1, well b = 56700; control promoter light, run 1, well a = 43125; control promoter light, run 1, well b = 48750; uninduced reporter light, run 1, well a = 3520. arr [DRSC07451] gave induced reporter light, run 1, well a = 1.18e5; induced reporter light, run 1, well b = 1.09e5; control promoter light, run 1, well a = 1.29e5; control promoter light, run 1, well b = 1.64e5; uninduced reporter light, run 1, well a = 11145. With knock-down of Obp58c [DRSC04166] the results were induced reporter light, run 1, well a = 1.83e5; induced reporter light, run 1, well b = 1.68e5; control promoter light, run 1, well a = 1.46e5; control promoter light, run 1, well b = 1.40e5; uninduced reporter light, run 1, well a = 13780. Against Cngl [DRSC20318] the deposit lists induced reporter light, run 1, well a = 91805; induced reporter light, run 1, well b = 99765; control promoter light, run 1, well a = 1.42e5; control promoter light, run 1, well b = 1.81e5; uninduced reporter light, run 1, well a = 10195.

With knock-down of CG4546 [DRSC15593], the screen gave induced reporter light, run 1, well a = 2.01e5; induced reporter light, run 1, well b = 1.92e5; control promoter light, run 1, well a = 1.94e5; control promoter light, run 1, well b = 2.14e5; uninduced reporter light, run 1, well a = 17440. Against Lst8 [DRSC18262] the deposit lists induced reporter light, run 1, well a = 1.67e5; induced reporter light, run 1, well b = 1.65e5; control promoter light, run 1, well a = 2.03e5; control promoter light, run 1, well b = 2.19e5; uninduced reporter light, run 1, well a = 12785. Silencing of Corp [DRSC17771] came out at: induced reporter light, run 1, well a = 1.91e5; induced reporter light, run 1, well b = 1.67e5; control promoter light, run 1, well a = 2.11e5; control promoter light, run 1, well b = 2.09e5; uninduced reporter light, run 1, well a = 11810. PIG-G [DRSC06823] scored induced reporter light, run 1, well a = 1.76e5 (active); induced reporter light, run 1, well b = 2.04e5; control promoter light, run 1, well a = 1.74e5; control promoter light, run 1, well b = 1.73e5; uninduced reporter light, run 1, well a = 9670. Knock-down of Tsp66E [DRSC09683] resulted in: induced reporter light, run 1, well a = 1.28e5; induced reporter light, run 1, well b = 1.27e5; control promoter light, run 1, well a = 1.32e5; control promoter light, run 1, well b = 1.15e5; uninduced reporter light, run 1, well a = 6485. tst [DRSC14212] showed induced reporter light, run 1, well a = 1.44e5; induced reporter light, run 1, well b = 1.45e5; control promoter light, run 1, well a = 2.19e5; control promoter light, run 1, well b = 2.36e5; uninduced reporter light, run 1, well a = 13630.

Sorted by “control promoter light, run 1, well b” (lowest first): 2 of the entries above.
Corp [DRSC17771] — induced reporter light, run 1, well a = 1.91e5; induced reporter light, run 1, well b = 1.67e5; control promoter light, run 1, well a = 2.11e5; control promoter light, run 1, well b = 2.09e5; uninduced reporter light, run 1, well a = 11810
Lst8 [DRSC18262] — induced reporter light, run 1, well a = 1.67e5; induced reporter light, run 1, well b = 1.65e5; control promoter light, run 1, well a = 2.03e5; control promoter light, run 1, well b = 2.19e5; uninduced reporter light, run 1, well a = 12785
